Some of these results come from one statement about several compounds together.
What was measured:
Ghrelin Receptor GHS-R [1] = target: T1, Ghrelin Receptor GHS-R (Homo sapiens, UniProt Q92847); assay: GHSR Agonist BACMAM FLIPR Assay; type: cell-based; parameters: The open reading frame of GHS-R was transferred from pCDN into pFastBacmam vector; expressed in transfected cells; host or cells: HEK MSR II cells or U2OS cells transduced with human GHSR BacMam virus; settings: HEK MSR II or U2OS cells transduced with human GHSR BACMAM virus; Fluo 4 calcium fluorescence
Ghrelin Receptor GHS-R [2] = target: T1, Ghrelin Receptor GHS-R; assay: GHS-R GTPγS functional agonist assay; type: biochemical; parameters: The open reading frame of GHS-R was transferred from pCDN into pFastBacmam vector; expressed in transfected cells; host or cells: Membranes of HEK293T cells (Lipofectamine, pCDNA3) or of HEK293F cells (BacMam co-transduction with rat Gαo); settings: membranes of HEK293 cells transiently expressing GHS-R (protocols I and II); [35S]GTPγS SPA; read-out: activity in the GHS-R GTPγS functional agonist assays

Protein sequences, listed by entry. Tags and fused reporters are not part of them.
UniProt Q92847, whole entry: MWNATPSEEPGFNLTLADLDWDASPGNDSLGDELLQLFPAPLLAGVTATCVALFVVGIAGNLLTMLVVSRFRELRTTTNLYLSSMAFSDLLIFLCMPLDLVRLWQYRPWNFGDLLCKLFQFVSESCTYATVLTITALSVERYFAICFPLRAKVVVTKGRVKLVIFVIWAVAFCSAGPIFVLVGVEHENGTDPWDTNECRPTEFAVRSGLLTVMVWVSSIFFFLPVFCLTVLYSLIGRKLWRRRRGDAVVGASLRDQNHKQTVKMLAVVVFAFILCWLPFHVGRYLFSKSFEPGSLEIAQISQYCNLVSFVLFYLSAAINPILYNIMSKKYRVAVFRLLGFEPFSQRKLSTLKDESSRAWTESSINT

Structure (SMILES)	EC50 (Ghrelin Receptor GHS-R [1]) [nM]	EC50 (Ghrelin Receptor GHS-R [2]) [nM]
COc1ccc(N2C[C@@H](C)N[C@@H](C)C2)cc1NS(=O)(=O)c1ccc(-c2ccccc2Cl)cc1 [Example 154, 2′-Chloro-N-[5-(cis-3,5-dimethyl-1-piperazinyl)-2-(methyloxy)phenyl]-4-biphenylsulfonamide]	< 1000	< 1000
COc1ccc(NS(=O)(=O)c2ccc(-c3cccc(F)c3)cc2)cc1N1C[C@@H](C)N[C@@H](C)C1 [Example 147, N-[3-(cis-3,5-Dimethyl-1-piperazinyl)-4-(methyloxy)phenyl]-3′-fluoro-4-biphenylsulfonamide]	< 1000	< 1000
COc1ccc(NS(=O)(=O)c2ccc(-c3ccccc3C)cc2)cc1N1C[C@@H](C)N[C@@H](C)C1 [Example 295, N-[3-(cis-3,5-Dimethyl-1-piperazinyl)-4-(methyloxy)phenyl]-2′-methyl-4-biphenylsulfonamide]	< 1000	< 1000
COc1cc(Br)ccc1S(=O)(=O)Nc1cc(N2C[C@@H](C)N[C@@H](C)C2)ccc1F [Example 260, 4-Bromo-N-[5-(cis-3,5-dimethyl-1-piperazinyl)-2-fluorophenyl]-2-(methyloxy)benzenesulfonamide]	< 1000	< 1000
COc1ccc(NS(=O)(=O)c2ccc(-c3ccc(C)s3)s2)cc1N1C[C@@H](C)N[C@@H](C)C1 [Example 243, N-[3-(cis-3,5-Dimethyl-1-piperazinyl)-4-(methyloxy)phenyl]-5′-methyl-2,2′-bithiophene-5-sulfonamide]	< 1000	< 1000
COc1ccc(NS(=O)(=O)c2ccc(-c3cccc(C)n3)cc2C)cc1N1C[C@@H](C)N[C@@H](C)C1 [Example 144, N-[3-(cis-3,5-Dimethyl-1-piperazinyl)-4-(methyloxy)phenyl]-2-methyl-4-(6-methyl-2-pyridinyl)benzenesulfonamide]	< 1000	< 1000
COc1ccc(NS(=O)(=O)c2ccc(-c3ccc(F)c(Cl)c3)cc2)cc1N1C[C@@H](C)N[C@@H](C)C1 [Example 145, 3′-Chloro-N-[3-(cis-3,5-dimethyl-1-piperazinyl)-4-(methyloxy)phenyl]-4′-fluoro-4-biphenylsulfonamide]	< 1000	< 1000
COc1ccc(NS(=O)(=O)c2ccc(-c3cccs3)cc2)cc1N1C[C@@H](C)N[C@@H](C)C1 [Example 11, N-[3-(cis-3,5-Dimethyl-1-piperazinyl)-4-(methyloxy)phenyl]-4-(2-thienyl)benzenesulfonamide]	< 1000	< 1000
COc1ccc(N2C[C@@H](C)N[C@@H](C)C2)cc1NS(=O)(=O)c1cccc(-c2ccoc2)c1 [Example 281, N-[5-(cis-3,5-Dimethyl-1-piperazinyl)-2-(methyloxy)phenyl]-3-(3-furanyl)benzenesulfonamide]	< 1000	< 1000
COc1ccc(NS(=O)(=O)c2ccc(-c3ccoc3)cc2C)cc1N1C[C@@H](C)N[C@@H](C)C1 [Example 164, N-[3-(cis-3,5-Dimethyl-1-piperazinyl)-4-(methyloxy)phenyl]-4-(3-furanyl)-2-methylbenzenesulfonamide]	< 1000	< 1000
